Source: the supplement of paper PMC12067093, “Discovery and optimisation of a covalent ligand for TRIM25 and its application to targeted protein ubiquitination” (Chemical Science, 2025)
Some of the results follow.

Protein sequences, listed by entry. Tags and fused reporters are not part of them. Lines headed by an entry give the natural chain unless they say otherwise; changes in a name come on top.
UniProt Q8WUH2: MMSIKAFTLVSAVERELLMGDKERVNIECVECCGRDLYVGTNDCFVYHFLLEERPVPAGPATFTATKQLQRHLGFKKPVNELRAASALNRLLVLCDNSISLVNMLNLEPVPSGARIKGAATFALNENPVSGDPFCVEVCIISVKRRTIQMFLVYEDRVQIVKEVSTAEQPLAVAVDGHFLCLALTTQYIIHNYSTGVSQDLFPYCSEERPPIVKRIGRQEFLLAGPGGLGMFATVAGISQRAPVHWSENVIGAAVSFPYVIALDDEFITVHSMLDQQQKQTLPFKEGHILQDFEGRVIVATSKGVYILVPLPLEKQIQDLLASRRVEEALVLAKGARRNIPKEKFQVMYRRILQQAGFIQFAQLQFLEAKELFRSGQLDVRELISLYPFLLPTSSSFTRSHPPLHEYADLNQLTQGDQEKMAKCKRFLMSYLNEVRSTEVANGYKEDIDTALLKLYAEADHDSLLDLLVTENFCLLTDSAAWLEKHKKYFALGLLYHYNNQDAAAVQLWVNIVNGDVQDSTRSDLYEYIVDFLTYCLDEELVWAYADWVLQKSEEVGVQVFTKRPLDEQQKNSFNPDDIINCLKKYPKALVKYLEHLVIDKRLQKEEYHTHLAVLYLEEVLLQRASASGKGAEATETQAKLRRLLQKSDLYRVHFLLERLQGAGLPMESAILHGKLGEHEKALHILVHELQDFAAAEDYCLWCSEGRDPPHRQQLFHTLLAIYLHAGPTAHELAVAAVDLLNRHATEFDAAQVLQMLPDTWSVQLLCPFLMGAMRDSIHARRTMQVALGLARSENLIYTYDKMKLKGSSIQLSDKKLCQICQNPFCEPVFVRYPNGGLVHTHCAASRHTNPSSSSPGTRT
UniProt Q8NI27: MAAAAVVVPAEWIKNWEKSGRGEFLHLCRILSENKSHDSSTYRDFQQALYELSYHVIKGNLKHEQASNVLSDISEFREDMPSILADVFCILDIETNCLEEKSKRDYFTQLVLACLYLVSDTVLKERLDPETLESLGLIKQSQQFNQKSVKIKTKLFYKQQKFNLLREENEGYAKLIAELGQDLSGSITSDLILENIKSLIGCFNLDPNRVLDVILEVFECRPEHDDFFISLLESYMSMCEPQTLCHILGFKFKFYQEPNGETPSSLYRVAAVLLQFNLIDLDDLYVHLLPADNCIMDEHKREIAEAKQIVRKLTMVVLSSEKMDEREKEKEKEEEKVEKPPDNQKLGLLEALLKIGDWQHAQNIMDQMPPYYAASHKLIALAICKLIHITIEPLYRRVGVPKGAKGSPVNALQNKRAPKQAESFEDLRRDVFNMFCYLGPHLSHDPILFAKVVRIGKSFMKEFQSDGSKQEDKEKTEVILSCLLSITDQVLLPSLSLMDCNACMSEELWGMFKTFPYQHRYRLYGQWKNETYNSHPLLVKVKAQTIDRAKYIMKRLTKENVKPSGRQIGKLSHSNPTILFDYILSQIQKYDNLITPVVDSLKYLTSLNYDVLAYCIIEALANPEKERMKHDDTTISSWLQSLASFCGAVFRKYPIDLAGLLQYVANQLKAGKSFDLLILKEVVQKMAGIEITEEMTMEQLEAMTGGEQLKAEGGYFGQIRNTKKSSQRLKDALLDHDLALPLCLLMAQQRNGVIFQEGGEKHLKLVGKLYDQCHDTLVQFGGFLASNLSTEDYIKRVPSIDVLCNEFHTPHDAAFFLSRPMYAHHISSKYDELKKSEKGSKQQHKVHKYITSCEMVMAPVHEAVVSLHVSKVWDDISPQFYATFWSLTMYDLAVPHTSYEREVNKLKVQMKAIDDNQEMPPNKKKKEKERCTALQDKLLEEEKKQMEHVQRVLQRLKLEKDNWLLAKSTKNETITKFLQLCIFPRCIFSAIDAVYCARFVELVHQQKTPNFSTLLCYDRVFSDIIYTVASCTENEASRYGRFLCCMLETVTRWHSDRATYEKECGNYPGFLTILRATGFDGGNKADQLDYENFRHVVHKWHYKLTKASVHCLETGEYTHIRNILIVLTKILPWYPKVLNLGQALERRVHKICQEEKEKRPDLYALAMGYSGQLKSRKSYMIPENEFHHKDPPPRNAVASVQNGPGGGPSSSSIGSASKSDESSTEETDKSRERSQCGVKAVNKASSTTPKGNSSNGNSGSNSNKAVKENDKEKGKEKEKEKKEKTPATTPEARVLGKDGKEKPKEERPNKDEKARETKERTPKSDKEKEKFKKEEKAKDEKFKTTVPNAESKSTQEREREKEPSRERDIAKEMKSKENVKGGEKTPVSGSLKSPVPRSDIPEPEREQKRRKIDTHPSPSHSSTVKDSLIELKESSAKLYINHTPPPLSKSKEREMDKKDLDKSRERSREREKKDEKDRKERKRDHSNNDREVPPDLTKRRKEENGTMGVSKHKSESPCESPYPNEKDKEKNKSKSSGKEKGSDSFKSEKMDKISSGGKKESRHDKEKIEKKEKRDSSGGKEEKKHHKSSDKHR
UniProt Q9Y490: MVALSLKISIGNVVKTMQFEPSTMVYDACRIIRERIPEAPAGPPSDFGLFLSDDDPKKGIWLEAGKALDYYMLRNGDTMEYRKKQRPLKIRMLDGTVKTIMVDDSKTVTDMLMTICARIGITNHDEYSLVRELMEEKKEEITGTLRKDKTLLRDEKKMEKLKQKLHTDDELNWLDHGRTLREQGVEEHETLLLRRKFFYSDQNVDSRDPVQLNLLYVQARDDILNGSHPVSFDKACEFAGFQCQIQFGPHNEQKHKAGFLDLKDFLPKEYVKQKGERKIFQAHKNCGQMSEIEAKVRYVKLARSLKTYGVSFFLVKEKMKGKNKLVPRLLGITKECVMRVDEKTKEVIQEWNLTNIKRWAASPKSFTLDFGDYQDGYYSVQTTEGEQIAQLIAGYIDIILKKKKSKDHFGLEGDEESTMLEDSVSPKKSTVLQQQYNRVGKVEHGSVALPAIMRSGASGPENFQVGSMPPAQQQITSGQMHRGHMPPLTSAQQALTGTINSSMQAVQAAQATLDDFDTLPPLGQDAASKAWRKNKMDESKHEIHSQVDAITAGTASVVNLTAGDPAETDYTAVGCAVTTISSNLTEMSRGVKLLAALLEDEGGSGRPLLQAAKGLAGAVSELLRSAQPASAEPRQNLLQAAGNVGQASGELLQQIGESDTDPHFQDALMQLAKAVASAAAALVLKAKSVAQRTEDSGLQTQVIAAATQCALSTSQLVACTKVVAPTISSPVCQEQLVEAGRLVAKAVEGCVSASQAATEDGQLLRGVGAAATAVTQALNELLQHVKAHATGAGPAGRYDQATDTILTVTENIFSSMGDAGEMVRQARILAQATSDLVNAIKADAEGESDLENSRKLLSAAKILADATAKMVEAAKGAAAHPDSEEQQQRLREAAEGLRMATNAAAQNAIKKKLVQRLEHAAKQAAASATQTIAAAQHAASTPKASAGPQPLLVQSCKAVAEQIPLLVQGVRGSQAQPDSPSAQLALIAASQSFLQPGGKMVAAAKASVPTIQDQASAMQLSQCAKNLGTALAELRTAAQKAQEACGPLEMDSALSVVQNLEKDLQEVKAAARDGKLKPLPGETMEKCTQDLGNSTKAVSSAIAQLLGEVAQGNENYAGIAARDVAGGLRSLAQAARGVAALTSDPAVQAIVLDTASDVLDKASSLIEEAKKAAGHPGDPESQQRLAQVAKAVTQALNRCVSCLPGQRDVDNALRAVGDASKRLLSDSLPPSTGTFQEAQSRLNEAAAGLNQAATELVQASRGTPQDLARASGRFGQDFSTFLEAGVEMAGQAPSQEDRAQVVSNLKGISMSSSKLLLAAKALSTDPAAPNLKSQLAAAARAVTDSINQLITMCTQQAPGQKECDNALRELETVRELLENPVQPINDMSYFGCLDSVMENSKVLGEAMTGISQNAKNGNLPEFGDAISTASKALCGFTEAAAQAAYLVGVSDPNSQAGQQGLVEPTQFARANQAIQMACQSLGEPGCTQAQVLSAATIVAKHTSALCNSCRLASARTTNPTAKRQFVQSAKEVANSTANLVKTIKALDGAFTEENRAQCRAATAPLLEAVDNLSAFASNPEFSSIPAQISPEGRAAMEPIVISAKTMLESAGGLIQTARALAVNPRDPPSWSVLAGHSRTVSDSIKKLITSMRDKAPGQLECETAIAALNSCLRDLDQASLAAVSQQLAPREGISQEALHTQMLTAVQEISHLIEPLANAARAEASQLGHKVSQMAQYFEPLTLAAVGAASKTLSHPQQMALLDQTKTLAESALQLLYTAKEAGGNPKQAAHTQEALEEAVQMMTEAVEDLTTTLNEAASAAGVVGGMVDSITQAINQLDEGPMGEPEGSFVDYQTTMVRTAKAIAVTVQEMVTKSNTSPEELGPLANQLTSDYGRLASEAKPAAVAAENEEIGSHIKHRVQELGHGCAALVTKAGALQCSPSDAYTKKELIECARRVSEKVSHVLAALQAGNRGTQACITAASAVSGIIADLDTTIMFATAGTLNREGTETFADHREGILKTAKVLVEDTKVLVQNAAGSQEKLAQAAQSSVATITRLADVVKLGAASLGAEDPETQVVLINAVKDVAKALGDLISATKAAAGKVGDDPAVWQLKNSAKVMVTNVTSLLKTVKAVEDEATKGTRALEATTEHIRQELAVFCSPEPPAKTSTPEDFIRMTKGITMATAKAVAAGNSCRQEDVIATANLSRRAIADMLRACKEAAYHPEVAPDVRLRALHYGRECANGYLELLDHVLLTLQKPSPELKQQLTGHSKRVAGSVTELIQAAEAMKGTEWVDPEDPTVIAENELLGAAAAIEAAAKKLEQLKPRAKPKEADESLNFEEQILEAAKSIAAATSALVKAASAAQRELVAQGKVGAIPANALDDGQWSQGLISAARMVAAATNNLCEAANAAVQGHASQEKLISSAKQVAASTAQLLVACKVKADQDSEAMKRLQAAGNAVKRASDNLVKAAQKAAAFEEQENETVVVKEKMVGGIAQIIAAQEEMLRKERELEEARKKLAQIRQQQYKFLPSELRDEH
UniProt Q12800: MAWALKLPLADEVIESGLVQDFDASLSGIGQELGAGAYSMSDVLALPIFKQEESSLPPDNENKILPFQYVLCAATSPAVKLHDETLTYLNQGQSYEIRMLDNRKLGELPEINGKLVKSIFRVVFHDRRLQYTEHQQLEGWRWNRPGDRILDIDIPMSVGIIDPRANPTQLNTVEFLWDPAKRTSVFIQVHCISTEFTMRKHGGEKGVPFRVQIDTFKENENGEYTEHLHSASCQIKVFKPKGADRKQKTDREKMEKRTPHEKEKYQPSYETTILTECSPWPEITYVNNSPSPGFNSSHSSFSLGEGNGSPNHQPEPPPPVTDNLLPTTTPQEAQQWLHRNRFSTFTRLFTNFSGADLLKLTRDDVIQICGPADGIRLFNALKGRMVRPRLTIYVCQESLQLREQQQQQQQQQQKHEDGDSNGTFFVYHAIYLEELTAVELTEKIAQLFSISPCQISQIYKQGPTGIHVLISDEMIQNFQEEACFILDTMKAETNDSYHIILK
UniProt Q8NHU6: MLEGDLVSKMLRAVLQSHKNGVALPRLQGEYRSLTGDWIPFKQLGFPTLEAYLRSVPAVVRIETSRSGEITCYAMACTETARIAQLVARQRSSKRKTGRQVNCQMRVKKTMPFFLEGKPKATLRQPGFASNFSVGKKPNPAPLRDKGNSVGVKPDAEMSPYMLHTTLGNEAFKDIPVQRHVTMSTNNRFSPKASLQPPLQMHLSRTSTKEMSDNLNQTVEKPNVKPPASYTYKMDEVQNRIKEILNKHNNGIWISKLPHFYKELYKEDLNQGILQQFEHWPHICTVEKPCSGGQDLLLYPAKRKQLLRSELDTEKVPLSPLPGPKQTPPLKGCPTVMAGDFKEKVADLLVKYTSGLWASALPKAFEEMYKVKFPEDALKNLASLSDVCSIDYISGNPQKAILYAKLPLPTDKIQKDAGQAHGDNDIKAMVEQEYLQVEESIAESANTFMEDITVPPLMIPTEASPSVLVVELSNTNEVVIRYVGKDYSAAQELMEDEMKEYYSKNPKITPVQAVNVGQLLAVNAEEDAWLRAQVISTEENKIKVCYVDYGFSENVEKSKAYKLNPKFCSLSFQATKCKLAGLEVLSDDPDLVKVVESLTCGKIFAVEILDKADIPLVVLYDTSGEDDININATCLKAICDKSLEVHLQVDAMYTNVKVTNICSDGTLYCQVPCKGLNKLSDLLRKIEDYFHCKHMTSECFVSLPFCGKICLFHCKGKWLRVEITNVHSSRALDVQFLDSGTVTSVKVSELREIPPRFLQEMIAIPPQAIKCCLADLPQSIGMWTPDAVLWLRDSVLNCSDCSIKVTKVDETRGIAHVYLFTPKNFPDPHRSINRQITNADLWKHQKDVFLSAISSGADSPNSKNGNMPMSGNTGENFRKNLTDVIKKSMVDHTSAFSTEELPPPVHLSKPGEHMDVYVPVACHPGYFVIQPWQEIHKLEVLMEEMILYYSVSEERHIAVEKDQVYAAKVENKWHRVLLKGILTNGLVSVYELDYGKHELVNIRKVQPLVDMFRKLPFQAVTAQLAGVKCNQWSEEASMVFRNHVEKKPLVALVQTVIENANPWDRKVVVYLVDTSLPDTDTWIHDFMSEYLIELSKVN

Each target was assayed with Cc1cc(ccc1-c1ccccc1)C(=O)N1CCCN(CC1)C(=O)CCl [compound 10] (assay: probe-labelled cysteine peptide fold change vs DMSO (competition) (log2 fold change); higher = less target engagement (more negative = stronger competition)). Conditions: 50 µM; THP-1; incubation time: 4 h.
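Note: competitive profiling in live THP-1 cells: cysteine peptides tagged with an iodoacetamide desthiobiotin (IA-DTB) probe, intensity after compound treatment relative to DMSO-treated cells.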

Row | Target | probe-labelled cysteine peptide fold change
1 | TGFBRAP1_Q8WUH2_33_VNIECVECCGR (UniProt Q8WUH2) | -0.00571
2 | THOC1_Q96FV9_396_NEGCPSFVK (UniProt Q96FV9) | -0.0773
3 | THOC2_Q8NI27_436_DVFNMFCYLGPHLSHDPILFAK (UniProt Q8NI27) | 0.215
4 | TGM2_P21980_371_SEGTYCCGPVPVR (UniProt P21980) | -0.293
5 | THEMIS2_Q5TEJ8_545_KLPACEIQAPPPRPPK (UniProt Q5TEJ8) | -0.294
6 | TELO2_Q9Y4R8_30_EAIHALSSSEDGGHIFCTLESLK (UniProt Q9Y4R8) | -0.304
7 | THOC1_Q96FV9_49_KCTLDQAFR (UniProt Q96FV9) | -0.739
8 | THBS1_P07996_718_DNCPNLPNSGQEDYDK (UniProt P07996) | -0.0541
9 | TES_Q9UGI8_196_LPCEMDAQGPK (UniProt Q9UGI8) | -0.318
10 | TICRR_Q7Z2Z1_160_EAEAALGGLVNAVFLLAPCPHSQR (UniProt Q7Z2Z1) | -0.894
11 | TIFA_Q96CG3_56_NSNICHYTFQDK (UniProt Q96CG3) | 0.0989
12 | TCP1_P17987_218_SQMESMLISGYALNCVVGSQGMPK (UniProt P17987) | 0.0902
13 | TLN1_Q9Y490_1023_ASVPTIQDQASAMQLSQCAK (UniProt Q9Y490) | 0.246
14 | THADA_Q6YHU6_42_NLASLLLHCVQLTDGVSQIHYIK (UniProt Q6YHU6) | 0.238
15 | TGFBRAP1_Q8WUH2_582_NSFNPDDIINCLK (UniProt Q8WUH2) | 0.168
16 | TES_Q9UGI8_361_NHAVVCQGCHNAIDPEVQR (UniProt Q9UGI8) | -0.27
17 | TIMM29_Q9BSF4_182_DCDINDDEFLHLPAHLR (UniProt Q9BSF4) | 0.314
18 | TFB2M_Q9H5Q4_149_VIHCDFFK (UniProt Q9H5Q4) | -0.234
19 | TES_Q9UGI8_29_CEGFELHFWR (UniProt Q9UGI8) | -0.158
20 | TFCP2_Q12800_453_IAQLFSISPCQISQIYK (UniProt Q12800) | -0.0417

An excerpt of these results, with tabs:
Row	Target	probe-labelled cysteine peptide fold change
7	THOC1_Q96FV9_49_KCTLDQAFR (UniProt Q96FV9)	-0.739
8	THBS1_P07996_718_DNCPNLPNSGQEDYDK (UniProt P07996)	-0.0541

Going on with the list.

Row | Target | probe-labelled cysteine peptide fold change
21 | TKT_P29401_206_CEAFGWHAIIVDGHSVEELCK (UniProt P29401) | 0.104
22 | TDRD7_Q8NHU6_692_KIEDYFHCK (UniProt Q8NHU6) | -0.707
23 | TIMP3_P35625_184_HYACIR (UniProt P35625) | 0.165
24 | THOC2_Q8NI27_804_RVPSIDVLCNEFHTPHDAAFFLSR (UniProt Q8NI27) | 0.0258
25 | THOC3_Q96J01_65_VHSVAWSCDGR (UniProt Q96J01) | 0.188
26 | TDG_Q13569_162_CLFMSGLSEVQLNHMDDHTLPGK (UniProt Q13569) | -0.495
27 | TEX30_Q5JUR7_166_LKEPVLFVSGSADEMCEK (UniProt Q5JUR7) | -0.222
28 | TIMM17A_Q99595_17_IVDDCGGAFTMGTIGGGIFQAIK (UniProt Q99595) | -0.12
29 | TENT2_Q6PIY7_374_IYPESFSPAIQLHLVHQAPCNVPPYLSK (UniProt Q6PIY7) | -0.189
30 | THOC2_Q8NI27_28_GEFLHLCR (UniProt Q8NI27) | 0.149
31 | TIMM50_Q3ZCQ8_236_DISCLNRDPAR (UniProt Q3ZCQ8) | -0.032
32 | THYN1_Q9P016_89_QTTCWDGVR (UniProt Q9P016) | -0.0937
33 | THOC6_Q86W42_214_HEECSRPHNGR (UniProt Q86W42) | 0.312
34 | THOC1_Q96FV9_226_HTEDREEGMDVEEGEMGDEEAPTTCSIPIDYNLYR (UniProt Q96FV9) | -0.258
35 | TDRD7_Q8NHU6_290_PCSGGQDLLLYPAK (UniProt Q8NHU6) | -0.828
36 | THOP1_P52888_246_VEEAFNCR (UniProt P52888) | 0.0946
37 | TEX30_Q5JUR7_129_GLICISYPLHHPK (UniProt Q5JUR7) | -0.134
38 | TLN1_Q9Y490_1363_ECDNALRELETVR (UniProt Q9Y490) | -1
39 | TES_Q9UGI8_364_NHAVVCQGCHNAIDPEVQR (UniProt Q9UGI8) | -0.124
40 | TFCP2_Q12800_72_ILPFQYVLCAATSPAVK (UniProt Q12800) | 0.0755
